Test results from PMC3024409.
No constants are given. Whether binding was seen depends on the method and setting. Some binding calls cover weakened binding; strength is not graded here. Sequences can lack the tags named with a protein.

The chains behind the UniProt entries cited, without tags or fusion partners.
UniProt P40160: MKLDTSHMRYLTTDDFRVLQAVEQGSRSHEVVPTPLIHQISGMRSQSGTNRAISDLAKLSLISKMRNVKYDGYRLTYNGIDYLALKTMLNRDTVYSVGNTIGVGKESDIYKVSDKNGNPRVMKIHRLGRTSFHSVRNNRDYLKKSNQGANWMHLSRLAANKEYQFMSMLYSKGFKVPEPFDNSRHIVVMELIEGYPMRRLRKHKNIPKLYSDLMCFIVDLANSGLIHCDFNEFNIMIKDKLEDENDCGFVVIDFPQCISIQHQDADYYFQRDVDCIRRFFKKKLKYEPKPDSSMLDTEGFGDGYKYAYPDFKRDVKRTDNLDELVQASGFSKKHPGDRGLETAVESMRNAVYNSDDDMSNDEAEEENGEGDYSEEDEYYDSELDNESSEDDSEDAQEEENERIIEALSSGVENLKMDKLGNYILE
UniProt P41819: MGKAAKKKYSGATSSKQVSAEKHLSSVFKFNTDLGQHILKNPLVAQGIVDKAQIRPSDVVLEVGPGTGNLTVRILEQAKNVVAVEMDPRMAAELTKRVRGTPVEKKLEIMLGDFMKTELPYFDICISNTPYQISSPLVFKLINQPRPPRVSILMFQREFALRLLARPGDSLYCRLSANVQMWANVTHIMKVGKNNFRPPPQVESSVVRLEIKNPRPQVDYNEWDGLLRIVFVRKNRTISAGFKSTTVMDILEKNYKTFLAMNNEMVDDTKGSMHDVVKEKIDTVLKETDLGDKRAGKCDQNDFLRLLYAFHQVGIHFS

How the values were obtained:
Assay in all cases: pull-down; 3 µM MBP-tagged bait and 5 µM untagged prey in 50 mM HEPES pH 7.5, 150 mM KCl; 10 min at room temperature, 1 h at 4°C with amylose resin; washed, eluted with 20 mM maltose; SDS-PAGE, Coomassie; both purified
[1] = target: T1, (MBP-)Nob1 (S. cerevisiae) (UniProt Q08444)
T1 sequence: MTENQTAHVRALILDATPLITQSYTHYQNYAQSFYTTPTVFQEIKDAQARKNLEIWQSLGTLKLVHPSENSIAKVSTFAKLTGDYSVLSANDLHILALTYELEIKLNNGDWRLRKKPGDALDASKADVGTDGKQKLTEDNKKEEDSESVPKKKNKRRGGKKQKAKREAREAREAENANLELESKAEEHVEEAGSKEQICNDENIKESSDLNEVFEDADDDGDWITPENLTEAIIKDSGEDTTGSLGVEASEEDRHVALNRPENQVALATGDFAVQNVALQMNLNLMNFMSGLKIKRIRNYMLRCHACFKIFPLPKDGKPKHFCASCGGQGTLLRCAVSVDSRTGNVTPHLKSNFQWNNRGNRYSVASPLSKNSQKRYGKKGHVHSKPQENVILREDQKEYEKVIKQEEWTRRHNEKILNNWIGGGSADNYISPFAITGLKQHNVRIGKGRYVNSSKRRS

[2] = target: T2, (MBP-)Rps5 (S. cerevisiae) (UniProt P26783)
T2 sequence: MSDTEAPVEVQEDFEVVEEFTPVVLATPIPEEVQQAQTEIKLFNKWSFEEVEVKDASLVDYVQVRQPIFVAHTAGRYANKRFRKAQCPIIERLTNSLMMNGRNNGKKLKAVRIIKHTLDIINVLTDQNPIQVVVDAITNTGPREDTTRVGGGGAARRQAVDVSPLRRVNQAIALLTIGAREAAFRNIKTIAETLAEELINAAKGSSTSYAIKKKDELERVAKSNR

[3] = target: T3, (MBP-)Ltv1 (S. cerevisiae) (UniProt P34078)
T3 sequence: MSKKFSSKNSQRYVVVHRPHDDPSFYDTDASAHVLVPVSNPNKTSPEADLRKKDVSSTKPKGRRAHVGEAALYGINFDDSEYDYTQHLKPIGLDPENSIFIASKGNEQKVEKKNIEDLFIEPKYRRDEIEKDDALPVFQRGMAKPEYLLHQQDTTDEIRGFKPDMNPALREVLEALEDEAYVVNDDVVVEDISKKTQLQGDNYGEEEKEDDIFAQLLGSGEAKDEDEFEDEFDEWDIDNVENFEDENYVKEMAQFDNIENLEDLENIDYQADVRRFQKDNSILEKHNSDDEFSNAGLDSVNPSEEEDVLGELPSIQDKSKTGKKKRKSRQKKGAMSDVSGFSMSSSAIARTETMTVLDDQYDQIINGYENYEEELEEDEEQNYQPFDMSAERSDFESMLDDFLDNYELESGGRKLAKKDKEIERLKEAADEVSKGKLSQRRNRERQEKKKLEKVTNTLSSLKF

binding [1]	binding [2]	binding [3]	Substance
binds	binds		Rio2 (untagged) (from UniProt P40160 1-425) (enzyme)
		binds weakly	Dim1 (untagged) (from UniProt P41819 1-318) (enzyme)
